Test results reported in PMC5824887, “A family of unconventional deubiquitinases with modular chain specificity determinants” (Nature Communications, 2018).

Legend:
[1] = target: T1, ZUFSP full-length (Homo sapiens) (UniProt Q96AP4); test: EMSA; details: 5 µM ZnSO4, partial shift, EMSA: 0.5 µM DNA, 5 µM protein, 10 mM TRIS pH 7.5, 0.2 mM DTT, 5 µM ZnSO4, 1 h at 4 °C, 1.5% agarose gel, recombinant protein, residues 1-578, protein details: 6His-Smt3 tag removed by Senp1
T1 sequence (looked up): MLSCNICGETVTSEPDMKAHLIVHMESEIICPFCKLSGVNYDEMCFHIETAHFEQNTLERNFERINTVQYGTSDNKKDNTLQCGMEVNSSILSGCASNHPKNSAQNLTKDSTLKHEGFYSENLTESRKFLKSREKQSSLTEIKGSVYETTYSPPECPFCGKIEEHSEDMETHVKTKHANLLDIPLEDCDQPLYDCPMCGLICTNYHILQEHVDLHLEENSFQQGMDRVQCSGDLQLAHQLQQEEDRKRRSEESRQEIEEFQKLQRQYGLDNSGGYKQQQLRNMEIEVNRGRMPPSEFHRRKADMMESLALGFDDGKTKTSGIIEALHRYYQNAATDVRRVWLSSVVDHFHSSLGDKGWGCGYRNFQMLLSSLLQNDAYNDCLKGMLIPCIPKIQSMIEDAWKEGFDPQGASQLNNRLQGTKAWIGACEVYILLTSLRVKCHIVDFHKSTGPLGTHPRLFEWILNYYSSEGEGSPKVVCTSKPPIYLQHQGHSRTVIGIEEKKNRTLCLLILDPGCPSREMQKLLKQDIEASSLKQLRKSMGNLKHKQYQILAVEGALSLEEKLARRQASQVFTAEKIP

[2] = target: T2, ZUFSP232-578 (Homo sapiens) (UniProt Q96AP4); test: EMSA; details: 5 µM ZnSO4, better binder than full-length, EMSA: 0.5 µM DNA, 5 µM protein, 10 mM TRIS pH 7.5, 0.2 mM DTT, 5 µM ZnSO4, 1 h at 4 °C, 1.5% agarose gel, recombinant protein, residues 232-578, protein details: 6His-Smt3 tag removed by Senp1
T2 sequence (looked up): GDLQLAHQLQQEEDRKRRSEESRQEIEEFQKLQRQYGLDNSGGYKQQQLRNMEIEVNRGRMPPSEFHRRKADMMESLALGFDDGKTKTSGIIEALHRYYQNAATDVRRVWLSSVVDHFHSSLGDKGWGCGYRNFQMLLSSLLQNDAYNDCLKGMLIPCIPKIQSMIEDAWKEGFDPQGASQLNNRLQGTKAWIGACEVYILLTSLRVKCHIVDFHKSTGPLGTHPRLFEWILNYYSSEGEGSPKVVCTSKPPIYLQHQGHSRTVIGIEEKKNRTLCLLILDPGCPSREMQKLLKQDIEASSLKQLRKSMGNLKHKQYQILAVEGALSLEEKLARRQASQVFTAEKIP

[3] = label: 5'-6-FAM, single-stranded DNA

| Sequence | binding result ([1]; folded or branched DNA) | binding result ([2]; folded or branched DNA) | other results |
| --- | --- | --- | --- |
| GGGCTTCTCCCGCCCCCGCCTTTTTTCCGGCGGCGGGGGCGGGAGAAGTAGATTG [OriL+6] | binds more weakly | binds | – |
| GGGCTTCTCCCGCCTTTTTTCCCGGCGGCGGGAGAAGTAGATTGAAG (double strand) [dsDNA] | – | – | binding result ([1]; label: 5'-6-FAM on strand 1): binds more weakly; binding result ([2]; label: 5'-6-FAM on strand 1): binds |
| GGGCTTCTCCCGCCTTTTTTCCCGGCGGCGGGAGAAGTAGATTGAAG [OriL] | binds more weakly | binds | – |
| GGGCTTCTCCCGCCTTTTTTCCCGGCGGCGGGAGAAGTAGATTGAAG [ssDNA] | – | – | binding result [1, 3]: binds more weakly; binding result [2, 3]: binds |

For some assays here: The comparison behind a weaker result is the experiment's own reference, which may not be listed here. Tags and fusion partners may be left off the protein sequences shown. For at least one entry, the source does not settle the construct or the ends of the probe. At least one verdict was read from the data and is not stated in words by the source.
